Data: PubChem BioAssay AID2685 (National Center for Advancing Translational Sciences (NCATS), 2010)
About 2,100 (0.66%) of roughly 320,000 compounds were called active. Inconclusive means that the source gave no clear call. Such entries were picked first, then a sample of the others. Calls follow the shape of the dose curve; as a rule, active = well fitted inhibition curve with a large enough effect in the signal ratio, with a control signal flat (not every such curve was filed as active); inconclusive = small, poorly fitted or top-dose-only effect, or effect the other way, or a change in a side signal; inactive = flat fitted curve, though single readings scatter; the % refers to the signal ratio. Where the call is inconclusive, the potency comes from a doubtful curve fit.

Assay: qHTS Assay for Lipid Storage Modulators in Drosophila S3 Cells
Conditions: BODIPY lipid droplet fluorescence, 18-24 h, cells fed with added oleic acid; lipid storage change, negative = inhibition: at 46.1 µM (top of the series) unless noted
Method in brief: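 Drosophila S3 cells got compounds at several concentrations plus oleic acid (400 uM solution). Laser-scanning cytometry with 488 nm excitation read lipid droplets at 500-530 nm and cells at 575-640 nm. Percent activity was relative to 20 uM Triacsin C.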
% is scaled to controls: 0 for no effect and ±100 for the full control effect; potency is read from the fitted curve at half-maximal effect.

Potency, inconclusive:
O=C(Nc1nnc(-c2ccco2)o1)c1ccc(Cl)s1 7.31 µM [falling, single point], Cc1ccc(C(=O)N2CCC3(CC2)NCCc2[nH]cnc23)cc1 4.11 µM [falling, partial curve, poor fit], Cc1csc(NC(=O)/C=C/c2ccc3c(c2)OCO3)n1 2.31 µM [activator, partial curve, poor fit], CCCSc1nsc(SCCC)c1C(N)=O 0.13 µM [falling, full curve, poor fit], CCN(CC(=O)Nc1ccccc1C(F)(F)F)C(=O)CCc1c(C)[nH]c(=O)c(C#N)c1C 0.651 µM [activator, full curve], O=C(CCN1C(=O)/C(=C/c2ccccc2F)SC1=S)Nc1cccnc1 6.51 µM [falling, single point], CCc1cccc(NC(=O)CCS(=O)(=O)c2cccc3nonc23)c1 29.1 µM [rising, single point], CCN(CC)c1ccc(/C=N/NC(=O)c2c[nH]c3ccccc23)cc1 7.31 µM [activator, partial curve, poor fit], CCC(C#CCN1CCOCC1)(CC)OCCC#N 23.1 µM [falling, single point], CC1CN(S(=O)(=O)c2ccc(C(=O)Nc3nccs3)cc2)CC(C)O1 (centres undefined) 0.58 µM [activator, full curve], Clc1ccc2nc(-c3ccccc3)c(CN3CCOCC3)n2c1 16.4 µM [falling, partial curve], O=C(CC(C(=O)N1CCc2ccccc21)n1ccnc1)NCc1ccccc1 (centres undefined) 0.92 µM [rising, partial curve], O=C(NC1CCN(S(=O)(=O)c2cccc([N+](=O)[O-])c2)CC1)C1CCCCC1 6.51 µM [activator, single point], Cc1c(C)c2ccc(OCC(=O)NC3CCN(Cc4ccccc4)CC3)c(C)c2oc1=O 29.1 µM [activator, single point], Cc1cccc(CC(=O)NCCN2CCOCC2)c1 3.66 µM [activator, full curve], COc1ccc(NS(=O)(=O)c2cn(C)cn2)cc1OC 9.2 µM [activator, partial curve], CNC(=O)COC(=O)c1ccccc1Nc1ccccc1 23.1 µM [falling, partial curve], CC(C)CCNC(=O)CCS(=O)(=O)c1cccc2nonc12 9.2 µM [activator, partial curve], CC(C)(C)c1nc(NCC2CCCO2)c2nnn(Cc3ccccc3)c2n1 (centres undefined) 0.0052 µM [activator, full curve, poor fit], O=C(COC(=O)COc1ccccc1F)Nc1ccc2c(c1)OCO2 0.58 µM [falling, single point], COc1cccc(NC(=O)CN(C)CC(=O)Nc2ccccc2-c2ccccc2)c1 6.51 µM [rising, partial curve, poor fit], COCCOC(=O)C1=C(C)N=C2SCCC(=O)N2C1/C=C/c1ccccc1 (centres undefined) 3.66 µM [activator, single point], Cc1ccccc1OCC(=O)OCC(=O)NCC1CCCO1 (centres undefined) 0.0046 µM [falling, full curve, poor fit]

Potency, active:
CSS(=O)(=O)c1cccc2cccnc12 2.59 µM, O=C(COC(=O)c1cccc(S(=O)(=O)N2CCOCC2)c1)Nc1ncc(C(F)(F)F)cc1Cl 23.1 µM

Lipid storage change, negative = inhibition, inconclusive:
CCc1ccccc1NC(=O)CN(C)C(=O)CSc1nn(-c2ccccc2)c(=S)s1 7.55%, O=C(c1ccco1)N1CCN(C(=O)c2ccccc2OC(=O)C23CC4CC(CC(C4)C2)C3)CC1 -20.2%, COc1cc(SC)ccc1C(=O)NCCOc1c(C)cc(C)cc1C -45%, CCOC(=O)c1cc2c(=O)n3ccccc3nc2n(CCCOC)c1=NC(C)=O -16%, COc1ccc(-c2cc(=O)oc3cc(OC(C)C(=O)NC(Cc4c[nH]c5ccc(O)cc45)C(=O)O)ccc23)cc1 (centres undefined) 23.1%, O=C(NCc1ccccc1)c1onc(CSc2ccc(Cl)cc2)c1C(=O)NCC1CC1 16.5%, O=C(CN1C(=O)NC(c2ccc(F)cc2)C1=O)Nc1ccc2c(c1)OCCO2 (centres undefined) -9.73%, O=S(=O)(NCCSCc1ccc(Cl)cc1Cl)c1ccc2c(c1)OCCO2 -119%, O=C(c1cc(F)ccc1F)C1CCCN(C(=O)c2ccc3nccnc3c2)C1 (centres undefined) 185%, NNC(=O)c1cc2c(s1)-c1cc(Cl)ccc1SC2 15.5%, CCC1C(=O)Nc2ccccc2N1C(=O)COc1ccccc1 (centres undefined) -32.8% [at 0.00295 µM], CN(C)CCC=C1c2ccccc2CCc2ccccc21 -0.121%, Cc1ccnc2c1NC(=O)c1cccnc1N2C1CC1 -2.3%, Cn1c(=O)c2c(nc(Br)n2Cc2nnc(N)s2)n(C)c1=O 14.2%, COc1cc(/C=C/C(=O)O)cc(S(=O)(=O)Nc2ccc3c(c2)CCC3)c1OC -50.4%, COc1cccc(/C=N/NC(=O)C(C)n2nc(C)c([N+](=O)[O-])c2C)c1O (centres undefined) -7.44%, CCCn1cc(SCC(=O)NCc2ccco2)c2ccccc21 28.7%, N#CC1(NC(=O)CN2c3cccc4cccc(c34)S2(=O)=O)CCCCC1, OC(Cn1cncn1)(c1ccc(F)cc1)c1ccc(Cl)cc1 (centres undefined) 14.2%, CCn1c(SCC(=O)N2CCN(c3ccccc3)CC2)nnc1-c1c[nH]c2ccccc12 15.3%, COc1cc(NC(=O)COC(=O)c2ccc(C)c(S(=O)(=O)N3CCCCC3)c2)c(C)cc1[N+](=O)[O-] 20.7%, COc1ccc(NC(=O)CC2(CC(=O)N3CCOCC3)CCCC2)cc1Cl 31.9%, COCCCNS(=O)(=O)c1ccccc1 93.7%, O=C(COC(=O)c1cnccn1)NCCc1ccc(Cl)cc1, CCCc1ncc(C(=O)c2ccc(OC)cc2)n1C 0.873%, COc1cc(-c2c(-c3ccsc3)sc3ccccc23)cc(OC)c1OC 18%, N#CNC(=Nc1ccccc1)SCc1ccc(C(=O)O)cc1 -25.4%, Cc1ccc(NC(=O)CSCC(=O)N=c2sccn2C)cc1 27.5%, O=C(NCCCn1ccnc1)C(=O)NCC1OCCN1S(=O)(=O)c1cc(F)ccc1F (centres undefined) 16.8%, Cc1cc2cc(CNC(=O)c3ccc(S(=O)(=O)N4CCOCC4)cc3)ccc2n1C 26.2%, CCN(CC)CCCNC(=O)CCn1nc(-c2ccccc2)ccc1=O -16.2%, CCNC(=O)CSc1nnc(C2CC2)n1-c1ccccc1 10.8%, COc1ccc2c(CC(=O)OCC(=O)Nc3ccc4c(c3)OCO4)coc2c1 51.1%, CCc1ccc(NC(=O)CSc2ccc(-c3ccccn3)nn2)cc1 16.2%, CCOC(=O)C(CSCC(=O)c1ccc(Cl)cc1Cl)NC(=O)OC(C)(C)C (centres undefined) 262%, CCCCn1c(N)c(N(CC)C(=O)CSCC(=O)Nc2ccc(OC)cc2)c(=O)[nH]c1=O, COc1ccc(/C=C/C(=O)Oc2cccc(/C=N/NC(=O)Cc3ccc(Br)cc3)c2)cc1 12.3%, CCOc1cc(S(=O)(=O)n2nc(C)cc2C)ccc1F 15.8%, Cc1cc(NCCOCCO)n2ncc(-c3ccc(Cl)cc3)c2n1 17.3%, CC1CN(C(=O)CNC(=O)Cc2cccc3ccccc23)CC(C)O1 (centres undefined) 16.8%, CN(C)C(=O)C1CCC(=O)N1Cc1cccs1 (centres undefined) 2.03%, O=C(c1ccc(S(=O)(=O)N2CCOCC2)cc1)N1CCc2ccccc21 -145%, COc1ccc(COC(=O)CCS(=O)(=O)c2ccc(C)cc2)cc1 -14.5%, CC(C)OC(=O)/C(=C/c1ccc(Br)cc1)NC(=O)c1ccco1 27.2%, CN(C)S(=O)(=O)c1ccc2c(c1)nc(CCC(=O)O)n2C 43.8%, CCOc1ncccc1C(=O)OCC(=O)c1cc(C)n(Cc2ccco2)c1C 71.6%, Cn1nccc1C(=O)N1CCN(c2ncccn2)CC1 -29.4%, CCOC(=O)c1sc(NNC(=O)c2ccc(C)cc2)nc1C 12.3%, Cc1c(C(=O)N2c3ccccc3CC2C)oc2ccccc12 (centres undefined) 4.67%, Cc1ccc(CCNC(=O)c2c[nH]c3ccc(S(=O)(=O)Nc4ccc(C)cc4C)cc3c2=O)cc1 -76.6%

Lipid storage change, negative = inhibition, inactive:
CCO[C@@H]1OC(C(=O)NC2CC2)=C[C@H](c2csc3ccccc23)[C@H]1CCCO -22.9%, CCc1cccc(NS(=O)(=O)c2ccc(-n3cccn3)cc2)c1 12.6%, OCCNCc1cc(Br)ccc1OCc1ccc(F)cc1 -27.1%

outcome, inactive:
CC(Sc1cccc(C(F)(F)F)c1)C(=O)NC(N)=O (centres undefined) inactive [at 46.1 µM]
